Patent US20060135587A1, “Method and compounds for promoting healing and reducing inflammation” (priority 2002, published 2006)

Assay: Rat body weight changes during full-thickness wound treatment
Format: in vivo, rats

With `CC[n+]1cn(C)c(C(=O)NC)c1C(=O)NC.O=S(=O)([O-])c1ccccc1` [Compound 2, 1-methyl-3-ethyl-4,5-bis(N-methylcarbamoyl)-imidazolium benzenesulfonate] the Body weight g (5th day) was 236 ± 8.4 g, the Body weight g (10th day) was 246 ± 1.1 g and the Body weight g (15th day) was 253.3 ± 2.1 g. The Body weight g (20th day) was 268.0 ± 4.2 g.
